In patent US20090069241A1, “Compositions and Methods for Use of Pigment Epithelial Derived Factor (PEDF) Peptide Fragments” (Yale University, priority 2006, published 2009):
Results are given in words; binding and its absence hold for the method and conditions named. Some results given as binding are weak or reduced against the parent protein; the word gives no strength. Sequences can lack the tags named with a protein.

Protein sequences, listed by entry. Tags and fused reporters are not part of them. Residues count along the entry.
UniProt P35968, residues 20-764: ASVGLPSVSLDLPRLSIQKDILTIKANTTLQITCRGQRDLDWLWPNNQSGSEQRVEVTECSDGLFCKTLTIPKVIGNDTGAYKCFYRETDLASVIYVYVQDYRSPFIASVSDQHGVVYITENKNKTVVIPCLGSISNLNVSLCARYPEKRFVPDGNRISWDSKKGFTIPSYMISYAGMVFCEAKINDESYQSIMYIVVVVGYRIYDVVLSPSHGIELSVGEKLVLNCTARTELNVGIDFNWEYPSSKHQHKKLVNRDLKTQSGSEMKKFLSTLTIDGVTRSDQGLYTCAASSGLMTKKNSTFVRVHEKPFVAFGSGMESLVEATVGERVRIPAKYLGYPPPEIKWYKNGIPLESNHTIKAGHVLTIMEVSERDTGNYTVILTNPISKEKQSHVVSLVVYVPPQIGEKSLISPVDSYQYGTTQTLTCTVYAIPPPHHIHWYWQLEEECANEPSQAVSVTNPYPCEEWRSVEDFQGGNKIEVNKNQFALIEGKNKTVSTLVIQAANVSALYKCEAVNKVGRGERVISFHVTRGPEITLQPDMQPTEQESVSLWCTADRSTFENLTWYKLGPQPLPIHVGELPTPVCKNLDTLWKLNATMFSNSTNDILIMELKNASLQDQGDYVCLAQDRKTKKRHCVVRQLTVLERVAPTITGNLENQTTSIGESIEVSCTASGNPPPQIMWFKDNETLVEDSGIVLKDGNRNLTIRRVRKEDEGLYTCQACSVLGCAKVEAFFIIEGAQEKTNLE

Molecular target: VEGF receptor KDR (VEGFR2) (UniProt P35968)
Assay: ELISA

B1: codon-optimized fusion protein (coPEDF): thioredoxin fused via His6 tag, thrombin cleavage site and S-Tag to the N-terminal of human PEDF (protein, not shown: large carriers; small tags and cut ends)
chain: QNPASPPEEGSPDPDSTGALVEEEDPFFKVPVNKLAAAVSNFGYDLYRVRSSMSPTTNVLLSPLSVATALSALSLGADERTESIIHRALYYDLISSPDIHGTYKELLDTVTAPQKNLKSASRIVFEKKLRIKSSFVAPLEKSYGTRPRVLTGNPRLDLQEINNWVQAQMKGKLARSTKEIPDEISILLLGVAHFKGQWVTKFDSRKTSLEDFYLDEERTVRVPMMSDPKAVLRYGLDSDLSCKIAQLPLTGSMSIIFFLPLKVTQNLTLIEESLTSEFIHDIDRELKTVQAVLTVPKLKLSYEGEVTKSLQEMKLQSLFDSPDFSKITGKPIKLTQVEHRAGFEWNEDGAGTTPSPGLQPAHLTFPLDYHLNQPFIFVLRDTDTGALLFIGKILDPRGP
How did the binding turn out when B1 was run?
Its binding is “binds”.
